# Data as given in PubChem BioAssay AID1671195 (Yale University, 2021).
# Assay: 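Genes whose knockdown alters LDL uptake in liver cancer cells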 (primary screen)
# System: human Huh7 hepatoma cells
# Reagents: siRNA pool against human genes, 18 nM
# Timing: about 2 to 2.5 days of knockdown, then 8 h LDL uptake
# Conditions: DiI-labelled LDL at 30 µg/ml for 8 h, in lipoprotein-deficient serum medium
# Read-out: 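Per-cell DiI-LDL intensity by automated imaging; well means scaled to the plate median and given as a robust z-score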
# Direction: robust z-score: higher = more LDL uptake after knockdown
# Rule for the call: 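a gene counts as active if at least two replicate z-scores exceed ±2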
# The whole screen tested about 22,000 reagents; below is an unselected part. About 1,510 of them (6.9%) were called active. 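Active includes knockdowns raising or lowering LDL uptake; positive z-scores mean more uptake, negative mean less.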
Gene,"robust z-score, replicate 1","robust z-score, replicate 2","robust z-score, replicate 3",Outcome
CMPK1 (GeneID 51727),-0.459,0.26,-0.622,inactive
TAC3 (GeneID 6866),-1.4,-0.747,-0.564,inactive
RAB36 (GeneID 9609),-0.943,-1.54,-1.25,inactive
LOC285889 (GeneID 285889),-0.659,-0.296,-0.335,inactive
ZNF45 (GeneID 7596),-0.047,0.257,0.198,inactive
PCDHB16 (GeneID 57717),-1.42,-1.17,-1.27,inactive
SFRP1 (GeneID 6422),0.136,0.215,-0.755,inactive
TEX38 (GeneID 374973),0.933,0.823,0.773,inactive
TMEM106A (GeneID 113277),2.17,3.07,1.99,active
LMAN1L (GeneID 79748),-1.32,-1.58,-1.46,inactive
ZNF542P (GeneID 147947),0.589,0.358,0.668,inactive
CSGALNACT2 (GeneID 55454),5.03,3.91,4.74,active
ZSWIM4 (GeneID 65249),-0.28,-0.333,-0.397,inactive
CHML (GeneID 1122),-1.85,-1.97,-0.631,inactive
SPATS2L (GeneID 26010),0.735,1.21,2.24,inactive
DPEP2 (GeneID 64174),-0.323,0.349,0.114,inactive
VGLL4 (GeneID 9686),-0.197,0.332,-1.79,inactive
PATE2 (GeneID 399967),0.544,0.159,-0.213,inactive
LOC401923 (retired record) (GeneID 401923),0.865,0.657,0.601,inactive
CHCHD7 (GeneID 79145),-2.44,-2.38,-2.3,active
IQSEC3 (GeneID 440073),1.89,2.07,1.8,inactive
NUDT17 (GeneID 200035),0.111,0.00249,0.187,inactive
RAPGEF5 (GeneID 9771),-0.457,-0.117,-0.00985,inactive
C8orf44 (GeneID 56260),-0.974,0.807,-1.46,inactive
FAM161B (GeneID 145483),-0.088,-0.678,-0.924,inactive
PKHD1L1 (GeneID 93035),-0.329,-0.467,-0.399,inactive
CCDC22 (GeneID 28952),-0.45,-2.07,-0.157,inactive
TOR1AIP1 (GeneID 26092),-1.85,-0.863,-0.503,inactive
WFDC10A (GeneID 140832),-1.31,-1.02,-1.03,inactive
SHOX (GeneID 6473),-0.941,-1.03,0.413,inactive
JUP (GeneID 3728),-1.11,-0.863,-0.732,inactive
UPF3B (GeneID 65109),-0.337,-0.575,0.587,inactive
SLCO1B1 (GeneID 10599),0.263,-0.174,-0.148,inactive
HYCC1 (GeneID 84668),3.49,4.75,4.03,active
H2BC17 (GeneID 8348),2.09,2.42,2.97,active
RAP2A (GeneID 5911),0.45,-0.262,2.67,inactive
PDE4A (GeneID 5141),-1.22,-1.6,-1.33,inactive
NDNF (GeneID 79625),0.941,1.08,0.193,inactive
SCRT2 (GeneID 85508),-0.76,-0.976,-1.58,inactive
APBB3 (GeneID 10307),-0.00452,1.17,0.489,inactive
TRAF5 (GeneID 7188),-0.321,-0.955,-0.328,inactive
TMT1B (GeneID 196410),-1.16,-0.184,-1.15,inactive
MAP4K1 (GeneID 11184),-0.335,-0.163,0.208,inactive
LOC440194 (retired record) (GeneID 440194),0.423,0.191,0.605,inactive
UBE2L3 (GeneID 7332),0.492,0.331,-0.489,inactive
GLRA2 (GeneID 2742),-0.736,0.0674,-0.355,inactive
MEOX2 (GeneID 4223),-0.566,-1.08,-0.16,inactive
LIN28A (GeneID 79727),-0.762,-0.204,-0.015,inactive
REC114 (GeneID 283677),0.0764,0.0967,0.0729,inactive
C8G (GeneID 733),0.21,-0.303,-0.28,inactive
CES4A (GeneID 283848),-1.05,-1.07,-0.966,inactive
LOC440403 (retired record) (GeneID 440403),-0.144,0.0369,-0.381,inactive
ZNF414 (GeneID 84330),1.3,0.472,1.26,inactive
LOC392473 (retired record) (GeneID 392473),0.23,0.489,1.1,inactive
COX10 (GeneID 1352),-0.821,-0.817,-0.603,inactive
EGF (GeneID 1950),-0.71,1.41,0.1,inactive
NDRG1 (GeneID 10397),0.113,1.91,1.5,inactive
EIF5 (GeneID 1983),-0.807,-0.512,-0.608,inactive
CDC42SE1 (GeneID 56882),1.02,1.54,0.874,inactive
ZNF677 (GeneID 342926),0.651,0.931,0.901,inactive
PPP2R1A (GeneID 5518),-1.77,-1.88,-1.56,inactive
TAF12 (GeneID 6883),0.832,0.0559,0.988,inactive
LOC388129 (retired record) (GeneID 388129),0.481,1.1,0.969,inactive
CSDE1 (GeneID 7812),2.19,3.55,2.47,active
PLEKHH3 (GeneID 79990),-0.902,-0.102,-0.431,inactive
TBATA (GeneID 219793),5.46,6.44,5.96,active
IL20 (GeneID 50604),-0.46,0.715,-0.761,inactive
EXOSC3 (GeneID 51010),-1.04,-0.362,-0.761,inactive
